Several values for one entry are separate records, joined by “and”; a condition that tells them apart may be missing. Equal entries are not always repeated. Hit rate of the full screen: of about 340,000 compounds, about 4,500 (1.3%) were called active. This list was built around the results that the source calls inconclusive (neither active nor inactive); the mix of calls is not that of the screen. Calls come from the whole dose curve; as a rule, active = well fitted inhibition curve with a large enough effect; inconclusive = small, poorly fitted or top-dose-only effect, or another doubt; inactive = no such curve, though single readings can be large or run the other way. Potencies of inconclusive entries are doubtful fits and often do not repeat.
target: DNA polymerase beta (Homo sapiens) (UniProt P06746); assay: qHTS Assay for Inhibitors of DNA Polymerase Beta; settings: Pol beta primer extension/strand displacement, fluorescence kinetic; activity change, negative = inhibition: at 114 µM (top of the series)
How it was run: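 Reaction started by 50 nM substrate onto compound-treated Pol beta (10 nM, 15 min preincubation, room temperature); plates read at 0 min and 10 min. Normalized concentration-effect data fitted by four-parameter Hill equation.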
% is set by controls: 0 for no effect and ±100 for the full control effect; potency is the fitted concentration of half-maximal effect.

Row | SMILES | activity change, negative = inhibition | Potency
1 | CC(C)(C)NS(=O)(=O)c1ccc(CCC(=O)NCc2ccco2)cc1 | inactive: 1.16% | 
2 | CCS(=O)(=O)c1ccc2oc(=O)c(/C=C(\O)c3ccc(Cl)cc3)nc2c1 |  | inconclusive: 10 µM [inhibitor, full curve, poor fit]
3 | O=C(Cn1c(=O)n(Cc2ccccc2)c(=O)c2sc3ccccc3c21)NCc1ccccc1Cl | inactive: 15.6% | 
4 | Cc1ccn2c(=O)c(C(=O)NCCc3ccccc3)c(O)nc2c1 |  | inconclusive: 31.6 µM [inhibitor, single point]
5 | Cc1cc(C(=O)N/N=C/c2ccc(-c3cccc(Cl)c3Cl)o2)n[nH]1 |  | inconclusive: 11.2 µM [inhibitor, partial curve]
6 | O=C1CC(=O)N2N=C(c3ccc([N+](=O)[O-])cc3)SC2=N1 |  | inconclusive: 35.5 µM [inhibitor, full curve, poor fit]
7 | O=C(Nc1ccc(Cl)cc1)C1CCCN(c2ncnc3c2nc2n3CCCCC2)C1 (configuration not stated) |  | inconclusive: 79.4 µM [inhibitor, single point]
8 | CC(C)CS(=O)(=O)c1oc(-c2ccc(F)cc2)nc1S(=O)(=O)c1ccccc1 | inactive: 18.6% | 
9 | C=C(C)CNC(=S)N=Nc1c(O)[nH]c2ccc([N+](=O)[O-])cc12 |  | inconclusive: 79.4 µM [inhibitor, single point]
10 | Cc1ccc(N2NC(=O)/C(=C/C=C/c3ccco3)C2=O)cc1C |  | active: 35.5 µM
11 | CN(NC1OC(=O)c2ccccc21)c1ccccc1[N+](=O)[O-] (configuration not stated) |  | inconclusive: 44.7 µM [inhibitor, single point]
12 | CCOCC(=O)Nc1ccc(S(=O)(=O)NCC2CCCO2)cc1 (configuration not stated) |  | inconclusive: 39.8 µM [inhibitor, single point]
13 | Cc1cc(C(=O)COC(=O)c2cc(Cl)ccc2N)c(C)n1Cc1ccco1 |  | active: 39.8 µM
14 | Nc1n[nH]c(=S)n1/N=C1/C(=O)Nc2ccccc21 |  | inconclusive: 89.1 µM [inhibitor, single point]
15 | CCOC(=O)Cc1csc(NS(=O)(=O)c2cc(Cl)ccc2Cl)n1 |  | inconclusive: 1.12 µM [inhibitor, full curve, poor fit]
16 | COc1ccc(C)cc1Nc1nc(N)c2ccccc2n1 |  | inconclusive: 25.1 µM [inhibitor, single point]
17 | CCC(C)c1ccc(NC(=O)N2CCN(C(=O)C3CCCO3)CC2)cc1 (configuration not stated) |  | inconclusive: 39.8 µM [inhibitor, single point]
18 | CC1(C)N([O-])C(c2ccccc2)=C[N+](=O)C1(C)C |  | inconclusive: 28.2 µM [inhibitor, single point]
19 | O=C1Nc2ccccc2Oc2cc([N+](=O)[O-])ccc21 |  | inconclusive: 14.1 µM [inhibitor, full curve, poor fit]
20 | O=C(O)COc1ccccc1C(Nc1ccccn1)c1cc(Cl)c2cccnc2c1O (configuration not stated) | inactive: -6.44% | 
21 | [O-]/[N+](=C\c1ccccc1)[C@@H]1CCCC[C@@H]1/[N+]([O-])=C/c1ccccc1 |  | inconclusive: 100 µM [inhibitor, partial curve]
22 | Oc1ccccc1/C=N/n1c2ccccc2c2ccccc21 |  | inconclusive: 0.141 µM [inhibitor, full curve, poor fit]
23 | CCCc1nnc(NC(=O)C2CC(=O)N(CCc3ccc(F)cc3)C2)s1 (configuration not stated) |  | inconclusive: 28.2 µM [inhibitor, single point]

Row | SMILES | activity change, negative = inhibition | Potency
24 | O=C(COc1ccc(Cl)cc1)OCc1cc(=O)n2nc(-c3cccs3)sc2n1 |  | active: 25.1 µM
25 | COc1ccc(C(=O)CC(=O)C(=O)Nc2ccc(C)c(C)c2)cc1 |  | inconclusive: 39.8 µM [inhibitor, single point]
26 | C=CCNS(=O)(=O)c1ccc(C(=O)OCc2cc(=O)oc3cc(OC)ccc23)cc1 |  | inconclusive: 39.8 µM [inhibitor, partial curve, poor fit]
27 | O=C(O)c1ccc(N2Cc3ccccc3C2)cc1O |  | active: 44.7 µM
28 | O=C(NCC1CCCO1)c1onc(CSc2ccc(F)c(F)c2)c1C(=O)O (configuration not stated) |  | inconclusive: 100 µM [inhibitor, single point]
29 | COc1ccc(N2CCN(C(=O)Cc3coc4ccc(C)cc34)CC2)cc1 |  | inconclusive: 89.1 µM [inhibitor, single point]
30 | COc1ccc(NC(C)=O)cc1NC(C)C(=O)Nc1ccc(F)c(F)c1F (configuration not stated) |  | inconclusive: 0.141 µM [inhibitor, full curve, poor fit]
31 | O=C(/C=C/c1ccc(Br)o1)OCc1ccccc1 |  | inconclusive: 8.91 µM [inhibitor, partial curve]
32 | CCOC(=O)c1c(NC(C)=O)c2c3c(sc2n1Cc1nc(-c2ccc(Cl)cc2)oc1C)CCCC3 | inactive: 45.9% | 
33 | CC(=O)c1ccc(S(=O)(=O)Nc2ccc(N3CCOCC3)cc2)cc1 |  | inconclusive: 63.1 µM [inhibitor, single point]
34 | Cc1ccc(/C=N/NC(=O)CSc2nc3ccccc3c(=O)n2-c2ccccc2)s1 |  | inconclusive: 89.1 µM [inhibitor, single point]
35 | N#C/C(=C\c1ccc(-c2ccccc2C(=O)O)o1)c1nc2ccccc2[nH]1 |  | inactive
36 | Cc1cc(-c2ccc(C)c(S(=O)(=O)N3CCCC(C)C3)c2)on1 (configuration not stated) | inactive: 0.689% | 
37 | COc1ccc(-n2c(=O)/c(=C\c3cccs3)s/c2=C(/C#N)C(=O)N2CCN(C)CC2)cc1 |  | inconclusive: 89.1 µM [inhibitor, single point]
38 | O=C(O)c1cc(N/N=C/C=C/c2ccccc2)ccc1Cl |  | inconclusive: 89.1 µM [inhibitor, single point]
39 | CC(=O)CC1(C)OC(N)=C(C#N)C1(C#N)C#N (configuration not stated) | inactive: 17.2% | 
40 | COc1ccc(-n2nnnc2SCC(=O)NCc2ccco2)cc1OC | inactive: -4% | 
41 | Cc1ccc(Nc2nnc(SCC(=O)NCc3ccco3)s2)cc1 |  | active: 10 µM
42 | O=C(O)c1ccc(Cl)c(S(=O)(=O)Nc2ccc3cn[nH]c3c2)c1 |  | active: 22.4 µM
43 | COc1ccc(C(CNC(=O)CN2C(=O)NC3(CC(C)CC(C)(C)C3)C2=O)N2CCOCC2)cc1 (configuration not stated) |  | inconclusive: 39.8 µM [inhibitor, partial curve]
44 | COc1cccc(CNC(=O)c2nnn(CC(=O)Nc3cc(Cl)ccc3C)c2N)c1 |  | inconclusive: 15.8 µM [inhibitor, full curve] and inconclusive: 178 nM [inhibitor, full curve, poor fit]
45 | O=C1NN(c2ccccc2)C(=O)/C1=C/c1ccc(-c2ccc(C(=O)O)cc2)o1 |  | inconclusive: 3.55 µM [inhibitor, full curve]
46 | Cc1ccc(Nc2cc(C)nc3nc(Cc4ccc(Cl)cc4)nn23)cc1 |  | inconclusive: 39.8 µM [inhibitor, single point]

Row | SMILES | activity change, negative = inhibition | Potency
47 | O=C(c1cccnc1)N1C2C=CC(C2)C1(C(F)(F)F)C(F)(F)F (configuration not stated) |  | active: 39.8 µM
48 | CCOC(=O)c1c(NC(=O)COc2ncnc3ccccc23)sc(C)c1C | inactive: -16.7% | 
49 | COc1cccc(OCC(=O)NNC(=S)Nc2ccc(Cl)cc2Cl)c1 |  | inconclusive: 0.631 µM [inhibitor, full curve, poor fit]
50 | CC1CCCC(NS(=O)(=O)c2cccc3nsnc23)C1C (configuration not stated) | inconclusive: -31.3% [inhibitor] | 
51 | Cc1ccc2nc(/C(C#N)=C/c3cccc(Br)c3)[nH]c2c1 |  | active: 22.4 µM
52 | Cc1ccc(C(=O)ONc2ccc(N=O)cc2)cc1 | inactive: 11.8% | 
53 | Cc1cc(C)c2c(=O)[nH]c(SCC(=O)c3ccc(F)c(C)c3)nc2n1 |  | inconclusive: 3.55 µM [inhibitor, full curve, poor fit]
54 | Fc1ccccc1C(c1nnnn1C1CCCC1)N1CCN(Cc2ccccc2)CC1 (configuration not stated) |  | inconclusive: 89.1 µM [inhibitor, single point]
55 | O=C(O)COc1ccccc1/C=N/NC(=O)c1cccc(S(=O)(=O)Nc2cccc(Cl)c2)c1 |  | inconclusive: 28.2 µM [inhibitor, full curve, poor fit]
56 | Cc1ccc2c(CC(=O)NC3CCCc4ccccc43)coc2c1 (configuration not stated) |  | inconclusive: 44.7 µM [inhibitor, partial curve]
57 | CCOc1ccc(-c2nc[nH]c2[N+](=O)[O-])cc1 |  | inconclusive: 39.8 µM [inhibitor, single point]
58 | COc1cccc(NC(=O)COC(=O)c2nc3nccc(C)n3n2)c1 |  | inconclusive: 1.26 µM [inhibitor, full curve]
59 | COc1ccc(S(=O)(=O)n2nc(OC(C)=O)cc2N)cc1 |  | inconclusive: 35.5 µM [inhibitor, full curve]
60 | OCCN=c1cc(-c2ccccc2)oc2ccc(Cl)cc12 |  | active: 89.1 µM
61 | Cn1c(O)c(N=NC(=O)c2ccccc2O)c2ccccc21 |  | inconclusive: 15.8 µM [inhibitor, full curve]
62 | COc1c(O)cc2oc(-c3ccc(O)cc3)cc(=O)c2c1O |  | inconclusive: 89.1 µM [inhibitor, single point]
63 | COc1ccc(CCNC(=S)N2CCN(S(=O)(=O)c3ccccc3F)CC2)cc1 |  | inconclusive: 0.708 µM [inhibitor, full curve, poor fit]
64 | Cc1cccc2cc(/C=N/NC(=O)c3ccncc3)c(Cl)nc12 | inactive: -8.15% | 
65 | Cc1ccc(CN(Cc2ccco2)C(=O)COc2c(C)cc(C)cc2C)cc1 |  | inconclusive: 4.47 µM [inhibitor, single point]
66 | CCCCNS(=O)(=O)c1ccc2nc(-c3cccnc3)cc(C(=O)NCCC)c2c1 |  | inconclusive: 0.112 µM [inhibitor, full curve, poor fit]
67 | COc1ccc(C(C)(C)C)cc1NC(=O)c1ccc2ncsc2c1 |  | inconclusive: 15.8 µM [inhibitor, single point]

As a short view, 21 of the compounds above:
Row | SMILES | activity change, negative = inhibition | Potency
4 | Cc1ccn2c(=O)c(C(=O)NCCc3ccccc3)c(O)nc2c1 |  | inconclusive: 31.6 µM [inhibitor, single point]
5 | Cc1cc(C(=O)N/N=C/c2ccc(-c3cccc(Cl)c3Cl)o2)n[nH]1 |  | inconclusive: 11.2 µM [inhibitor, partial curve]
6 | O=C1CC(=O)N2N=C(c3ccc([N+](=O)[O-])cc3)SC2=N1 |  | inconclusive: 35.5 µM [inhibitor, full curve, poor fit]
7 | O=C(Nc1ccc(Cl)cc1)C1CCCN(c2ncnc3c2nc2n3CCCCC2)C1 (configuration not stated) |  | inconclusive: 79.4 µM [inhibitor, single point]
8 | CC(C)CS(=O)(=O)c1oc(-c2ccc(F)cc2)nc1S(=O)(=O)c1ccccc1 | inactive: 18.6% | 
9 | C=C(C)CNC(=S)N=Nc1c(O)[nH]c2ccc([N+](=O)[O-])cc12 |  | inconclusive: 79.4 µM [inhibitor, single point]
10 | Cc1ccc(N2NC(=O)/C(=C/C=C/c3ccco3)C2=O)cc1C |  | active: 35.5 µM
11 | CN(NC1OC(=O)c2ccccc21)c1ccccc1[N+](=O)[O-] (configuration not stated) |  | inconclusive: 44.7 µM [inhibitor, single point]
12 | CCOCC(=O)Nc1ccc(S(=O)(=O)NCC2CCCO2)cc1 (configuration not stated) |  | inconclusive: 39.8 µM [inhibitor, single point]
13 | Cc1cc(C(=O)COC(=O)c2cc(Cl)ccc2N)c(C)n1Cc1ccco1 |  | active: 39.8 µM
14 | Nc1n[nH]c(=S)n1/N=C1/C(=O)Nc2ccccc21 |  | inconclusive: 89.1 µM [inhibitor, single point]
15 | CCOC(=O)Cc1csc(NS(=O)(=O)c2cc(Cl)ccc2Cl)n1 |  | inconclusive: 1.12 µM [inhibitor, full curve, poor fit]
16 | COc1ccc(C)cc1Nc1nc(N)c2ccccc2n1 |  | inconclusive: 25.1 µM [inhibitor, single point]
17 | CCC(C)c1ccc(NC(=O)N2CCN(C(=O)C3CCCO3)CC2)cc1 (configuration not stated) |  | inconclusive: 39.8 µM [inhibitor, single point]
18 | CC1(C)N([O-])C(c2ccccc2)=C[N+](=O)C1(C)C |  | inconclusive: 28.2 µM [inhibitor, single point]
19 | O=C1Nc2ccccc2Oc2cc([N+](=O)[O-])ccc21 |  | inconclusive: 14.1 µM [inhibitor, full curve, poor fit]
20 | O=C(O)COc1ccccc1C(Nc1ccccn1)c1cc(Cl)c2cccnc2c1O (configuration not stated) | inactive: -6.44% | 
21 | [O-]/[N+](=C\c1ccccc1)[C@@H]1CCCC[C@@H]1/[N+]([O-])=C/c1ccccc1 |  | inconclusive: 100 µM [inhibitor, partial curve]
22 | Oc1ccccc1/C=N/n1c2ccccc2c2ccccc21 |  | inconclusive: 0.141 µM [inhibitor, full curve, poor fit]
23 | CCCc1nnc(NC(=O)C2CC(=O)N(CCc3ccc(F)cc3)C2)s1 (configuration not stated) |  | inconclusive: 28.2 µM [inhibitor, single point]
24 | O=C(COc1ccc(Cl)cc1)OCc1cc(=O)n2nc(-c3cccs3)sc2n1 |  | active: 25.1 µM

From PubChem BioAssay AID485314 (National Center for Advancing Translational Sciences (NCATS), 2010)
